Assay results from patent US20210317092A1 (BAYER PHARMA AKTIENGESELLSCHAFT, priority 2016, published 2021).
For at least one compound, name, drawing or mass did not settle the structure.

Molecular target: T1, BDKRB1 (Rattus norvegicus, UniProt P97583)
T1 construct: bladder strips (˜2×8 mm) were cut from the bladder; tissue Charles River Sulzfeld (animals); host or cells: urinary bladder strips of cyclophosphamide-pretreated female Sprague Dawley rats
T1 sequence (P97583 1-337): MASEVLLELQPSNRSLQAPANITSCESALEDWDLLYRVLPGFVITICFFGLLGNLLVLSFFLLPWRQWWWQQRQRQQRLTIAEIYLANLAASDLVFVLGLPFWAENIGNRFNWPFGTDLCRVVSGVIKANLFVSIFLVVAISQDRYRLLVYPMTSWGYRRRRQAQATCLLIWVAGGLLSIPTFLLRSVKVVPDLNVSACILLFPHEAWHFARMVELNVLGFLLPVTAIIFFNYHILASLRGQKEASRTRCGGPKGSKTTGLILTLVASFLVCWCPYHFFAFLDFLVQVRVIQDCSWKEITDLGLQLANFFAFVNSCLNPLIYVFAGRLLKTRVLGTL
Test: Isolated bladder stripes in the organbath system (rat)
Details: bladder stripes from cyclophosphamide (CYP) treated rats, preventive treatment

Compound: CCOc1ccc(-c2ccc(NC(=O)C3(c4cccc(Cl)c4)CC3)cc2-c2nnn[nH]2)cn1 [Example 253, 1-(3-Chlorophenyl)-N-[4-(6-ethoxypyridin-3-yl)-3-(1H-tetrazol-5-yl)phenyl]cyclopropanecarboxamide]
- inhibition of des-Arg9-Bradykinin (BDKRB1 agonist)-induced contractions of bladder stripes: dose-dependently inhibited
